Data reported in article PMC8050238.
These are yes or no findings as the source states them, for the method shown. Binding seen in cells or lysates may run through a third protein. Here binding means that the protein was enriched with, or labelled near, the bait; the list need not be complete.

Sequences of proteins named here, by UniProt entry; tags and fusion partners are left off.
UniProt P78347: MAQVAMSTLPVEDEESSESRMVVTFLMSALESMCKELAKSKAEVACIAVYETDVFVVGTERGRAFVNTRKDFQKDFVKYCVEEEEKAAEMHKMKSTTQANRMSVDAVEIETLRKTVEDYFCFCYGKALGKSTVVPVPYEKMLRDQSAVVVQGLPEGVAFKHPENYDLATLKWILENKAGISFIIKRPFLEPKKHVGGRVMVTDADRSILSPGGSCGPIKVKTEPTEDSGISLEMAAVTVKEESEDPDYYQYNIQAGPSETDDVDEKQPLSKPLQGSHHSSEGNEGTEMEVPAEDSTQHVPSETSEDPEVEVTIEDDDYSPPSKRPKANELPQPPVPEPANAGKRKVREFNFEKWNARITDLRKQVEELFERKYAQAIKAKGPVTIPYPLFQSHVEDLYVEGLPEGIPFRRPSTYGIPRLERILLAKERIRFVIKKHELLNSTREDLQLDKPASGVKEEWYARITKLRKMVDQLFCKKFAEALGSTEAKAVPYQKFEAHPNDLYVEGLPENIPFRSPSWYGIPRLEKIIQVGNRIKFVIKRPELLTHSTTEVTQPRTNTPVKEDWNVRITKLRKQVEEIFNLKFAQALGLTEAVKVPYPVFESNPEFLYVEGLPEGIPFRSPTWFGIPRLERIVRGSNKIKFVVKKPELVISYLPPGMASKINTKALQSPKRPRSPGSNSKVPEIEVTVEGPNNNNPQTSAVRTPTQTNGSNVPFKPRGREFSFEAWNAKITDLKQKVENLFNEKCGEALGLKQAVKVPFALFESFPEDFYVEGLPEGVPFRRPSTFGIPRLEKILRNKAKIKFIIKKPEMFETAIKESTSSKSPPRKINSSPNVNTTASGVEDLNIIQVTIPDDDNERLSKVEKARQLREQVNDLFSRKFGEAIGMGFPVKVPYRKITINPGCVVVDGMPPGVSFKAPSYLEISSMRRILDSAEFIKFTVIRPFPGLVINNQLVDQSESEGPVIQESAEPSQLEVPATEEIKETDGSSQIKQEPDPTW
UniProt P78527: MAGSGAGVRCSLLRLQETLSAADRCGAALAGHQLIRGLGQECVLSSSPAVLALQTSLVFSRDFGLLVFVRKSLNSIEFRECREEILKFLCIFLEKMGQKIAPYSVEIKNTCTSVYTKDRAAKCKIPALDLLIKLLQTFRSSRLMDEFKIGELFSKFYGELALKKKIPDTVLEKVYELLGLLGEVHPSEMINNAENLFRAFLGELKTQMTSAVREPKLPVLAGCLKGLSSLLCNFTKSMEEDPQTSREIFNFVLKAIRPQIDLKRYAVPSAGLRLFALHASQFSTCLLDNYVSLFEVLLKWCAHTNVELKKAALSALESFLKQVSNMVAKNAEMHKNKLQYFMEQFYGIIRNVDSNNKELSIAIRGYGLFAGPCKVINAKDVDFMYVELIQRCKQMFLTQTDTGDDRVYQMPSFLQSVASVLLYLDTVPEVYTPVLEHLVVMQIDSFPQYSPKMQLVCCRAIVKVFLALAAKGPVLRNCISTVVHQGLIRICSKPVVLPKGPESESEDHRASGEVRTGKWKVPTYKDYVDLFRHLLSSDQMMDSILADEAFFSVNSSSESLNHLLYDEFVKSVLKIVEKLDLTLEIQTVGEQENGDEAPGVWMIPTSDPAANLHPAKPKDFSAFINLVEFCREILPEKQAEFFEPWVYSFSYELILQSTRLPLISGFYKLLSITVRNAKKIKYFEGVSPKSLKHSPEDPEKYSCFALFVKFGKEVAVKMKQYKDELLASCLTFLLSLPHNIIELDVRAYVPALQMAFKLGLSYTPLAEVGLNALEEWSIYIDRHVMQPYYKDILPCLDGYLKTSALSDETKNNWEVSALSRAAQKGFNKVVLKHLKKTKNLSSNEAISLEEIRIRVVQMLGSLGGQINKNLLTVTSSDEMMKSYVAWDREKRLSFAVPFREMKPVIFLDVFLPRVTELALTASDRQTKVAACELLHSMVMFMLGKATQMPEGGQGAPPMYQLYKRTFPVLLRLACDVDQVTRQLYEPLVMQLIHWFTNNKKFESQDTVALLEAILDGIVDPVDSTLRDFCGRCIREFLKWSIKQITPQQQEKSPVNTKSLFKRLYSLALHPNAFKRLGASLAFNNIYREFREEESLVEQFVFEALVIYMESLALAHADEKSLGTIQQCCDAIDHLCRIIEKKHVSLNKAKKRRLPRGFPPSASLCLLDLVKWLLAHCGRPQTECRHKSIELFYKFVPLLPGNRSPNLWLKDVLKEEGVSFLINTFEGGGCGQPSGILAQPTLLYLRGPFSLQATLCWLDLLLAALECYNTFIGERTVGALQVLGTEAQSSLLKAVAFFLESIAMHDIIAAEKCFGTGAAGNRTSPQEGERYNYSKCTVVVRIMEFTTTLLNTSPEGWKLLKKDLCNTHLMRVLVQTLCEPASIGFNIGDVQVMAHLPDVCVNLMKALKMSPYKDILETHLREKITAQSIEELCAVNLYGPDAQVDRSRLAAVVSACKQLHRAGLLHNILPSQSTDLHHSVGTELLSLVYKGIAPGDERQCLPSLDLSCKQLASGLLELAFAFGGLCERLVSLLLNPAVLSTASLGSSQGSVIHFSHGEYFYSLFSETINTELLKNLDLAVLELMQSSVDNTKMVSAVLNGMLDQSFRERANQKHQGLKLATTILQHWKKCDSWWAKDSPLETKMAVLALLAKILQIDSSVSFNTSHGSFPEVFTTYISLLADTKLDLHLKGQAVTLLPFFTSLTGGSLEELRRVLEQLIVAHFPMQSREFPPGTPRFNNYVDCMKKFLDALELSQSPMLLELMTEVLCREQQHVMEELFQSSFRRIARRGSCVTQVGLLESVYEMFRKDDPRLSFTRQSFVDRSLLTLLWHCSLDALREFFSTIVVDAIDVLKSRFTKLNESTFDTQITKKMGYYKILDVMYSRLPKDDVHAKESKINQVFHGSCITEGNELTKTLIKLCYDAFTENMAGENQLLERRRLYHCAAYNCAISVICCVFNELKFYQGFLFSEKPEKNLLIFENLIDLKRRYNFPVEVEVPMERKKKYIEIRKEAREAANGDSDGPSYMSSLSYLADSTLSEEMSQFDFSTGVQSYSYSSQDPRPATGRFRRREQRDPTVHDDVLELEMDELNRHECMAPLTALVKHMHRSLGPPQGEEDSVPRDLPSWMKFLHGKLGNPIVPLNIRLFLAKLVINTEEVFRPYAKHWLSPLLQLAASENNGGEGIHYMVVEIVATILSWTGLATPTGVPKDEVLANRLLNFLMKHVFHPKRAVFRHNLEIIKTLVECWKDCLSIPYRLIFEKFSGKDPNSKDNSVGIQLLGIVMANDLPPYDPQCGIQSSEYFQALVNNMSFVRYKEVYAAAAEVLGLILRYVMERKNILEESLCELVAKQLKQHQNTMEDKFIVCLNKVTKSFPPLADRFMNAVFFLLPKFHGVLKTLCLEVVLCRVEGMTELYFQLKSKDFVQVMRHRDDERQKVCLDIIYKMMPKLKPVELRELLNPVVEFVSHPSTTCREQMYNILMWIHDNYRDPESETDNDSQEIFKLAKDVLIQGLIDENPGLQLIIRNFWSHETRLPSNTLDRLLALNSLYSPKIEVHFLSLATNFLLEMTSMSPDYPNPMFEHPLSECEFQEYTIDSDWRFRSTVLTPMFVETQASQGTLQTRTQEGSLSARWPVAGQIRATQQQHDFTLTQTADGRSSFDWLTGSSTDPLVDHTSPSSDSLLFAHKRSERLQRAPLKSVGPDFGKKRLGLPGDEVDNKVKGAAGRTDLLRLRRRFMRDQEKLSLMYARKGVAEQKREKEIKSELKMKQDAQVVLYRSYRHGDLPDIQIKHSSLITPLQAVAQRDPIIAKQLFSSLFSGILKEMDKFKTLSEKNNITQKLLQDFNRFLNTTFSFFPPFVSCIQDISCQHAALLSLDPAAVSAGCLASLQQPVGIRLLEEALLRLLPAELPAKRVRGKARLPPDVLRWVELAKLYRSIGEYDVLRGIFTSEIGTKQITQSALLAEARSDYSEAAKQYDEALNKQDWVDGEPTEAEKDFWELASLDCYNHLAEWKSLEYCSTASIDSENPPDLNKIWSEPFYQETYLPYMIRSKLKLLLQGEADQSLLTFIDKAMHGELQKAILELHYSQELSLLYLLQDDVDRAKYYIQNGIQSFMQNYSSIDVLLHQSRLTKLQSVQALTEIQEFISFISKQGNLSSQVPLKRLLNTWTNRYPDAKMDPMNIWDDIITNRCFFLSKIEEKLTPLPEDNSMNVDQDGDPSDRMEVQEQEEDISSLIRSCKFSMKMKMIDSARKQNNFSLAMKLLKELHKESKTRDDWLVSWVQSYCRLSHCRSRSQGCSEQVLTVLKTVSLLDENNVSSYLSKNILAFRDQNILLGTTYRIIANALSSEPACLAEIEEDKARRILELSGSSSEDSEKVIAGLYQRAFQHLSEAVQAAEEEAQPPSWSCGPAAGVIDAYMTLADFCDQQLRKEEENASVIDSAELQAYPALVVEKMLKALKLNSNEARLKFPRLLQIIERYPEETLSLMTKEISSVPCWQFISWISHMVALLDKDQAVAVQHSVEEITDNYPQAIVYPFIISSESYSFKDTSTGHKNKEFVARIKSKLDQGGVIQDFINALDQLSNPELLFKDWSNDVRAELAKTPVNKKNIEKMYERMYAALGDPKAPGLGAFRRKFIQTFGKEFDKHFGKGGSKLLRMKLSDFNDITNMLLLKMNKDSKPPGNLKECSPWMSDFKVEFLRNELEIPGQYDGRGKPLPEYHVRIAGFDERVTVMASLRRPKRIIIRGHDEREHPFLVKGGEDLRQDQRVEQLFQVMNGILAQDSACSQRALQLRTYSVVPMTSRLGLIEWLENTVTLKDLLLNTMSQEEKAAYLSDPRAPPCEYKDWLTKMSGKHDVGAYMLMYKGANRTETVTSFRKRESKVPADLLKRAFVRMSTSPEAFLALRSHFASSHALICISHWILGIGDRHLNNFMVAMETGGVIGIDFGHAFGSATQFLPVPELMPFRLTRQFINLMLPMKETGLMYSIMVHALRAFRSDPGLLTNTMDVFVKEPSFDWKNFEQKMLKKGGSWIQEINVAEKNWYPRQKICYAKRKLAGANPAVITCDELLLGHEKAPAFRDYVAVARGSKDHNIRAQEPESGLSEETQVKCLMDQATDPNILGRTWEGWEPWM

Target: general transcription factor II-I (GTF2I), Myc-tagged (human) (UniProt P78347)
Assay: affinity purification with mass spectrometry; HEK293T cells transfected with pCMV6-entry-myc-GTF2I, lysed 48 h later (20 mM Tris-Cl, 5 mM EDTA, pH 7.4, 150 mM NaCl, 1% Triton X-100, 10% glycerol); lysate immunoprecipitated with anti-Myc antibody or normal mouse IgG and protein G beads at 4 °C; SDS-PAGE, Coomassie, bands at 120 kDa and above 270 kDa excised, trypsin, LC-MS/MS; three independent experiments

binding: binds
Substance: DNA-dependent protein kinase catalytic subunit (PRKDC) (from UniProt P78527 1-4128)
